The results in this text go back to PubChem BioAssay AID662 (National Center for Advancing Translational Sciences (NCATS), 2007).

Values joined by “and” are separate entries in the source; they are usually repeats but may differ in a detail not shown here. Equal entries are not always repeated. Some of the results follow. These are further read-outs of the screen, such as a control signal, another cell line or another target. No call is given for them. The list favours compounds with an active or inconclusive main result. The note in brackets gives the kind of curve behind each potency; many fits are weak.

The nature of this assay: Cell signaling CRE-BLA (Fsk stim). The note with it: CHO CRE-bla reporter (cAMP response element driving beta-lactamase), forskolin EC10, beta-lactamase ratio; measured here: 460 nm blue channel. The method in brief:
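Cells were plated overnight at 37 °C, exposed to compound titrations plus EC10 NKH 477 for 3 h, then given CCF4 dye for 2 h at room temperature. Blue/green (460/530 nm) ratio was converted to %Activity and AC50 values calculated.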
Broadly, the AC50 is the concentration giving half of the maximal activity seen. For `CC(C(=O)N1c2ccccc2Sc2ccccc21)n1nnc(-c2cccs2)n1` (stereo not drawn), the half-maximal activity concentration (AC50) is 20 µM [falling, partial curve, poor fit].

On to `CC(=O)Nc1ccc(SCC(=O)OCC(=O)NC(=O)NCc2ccco2)cc1`, for which the AC50 is 0.251 µM [falling, partial curve].

For `CCn1c(NC(=O)c2cccs2)nc2ccccc21`, the AC50 is 6.31 µM [falling, partial curve].

Take `O=c1[nH]c2cc(Cl)cc(Cl)c2[nH]c1=O`: the AC50 is 3.16 µM [falling, single point].

In the case of `CSc1ccccc1N=Cc1nc(-c2ccccc2)oc1O`, the AC50 is 15.8 µM [rising, single point].

As for `COC(=O)Cn1cnc2sc(C)c(S(=O)(=O)N3CCC(C)CC3)c2c1=O`, the half-maximal activity concentration (AC50) was 0.00398 µM [falling, full curve, poor fit].

Consider `COc1ccccc1C1C=C(c2ccc(Cl)cc2)Nc2nc(N3C(=O)CCC3=O)nn21` (stereo not drawn), for which the AC50 was 25.1 µM [rising, single point].

In the case of `COC(=O)C1=CNC=C(C(=O)OC)C1c1ccc(Cl)cc1`, the AC50 is 10 µM [rising, partial curve].

`O=C(OCC(=O)N1CCCC1)c1cncc(Br)c1`: the AC50 was 5.01 µM [falling, single point].

Turning to `CC1CCC/C(=C\Nc2ccc(O)cc2)C1=O` (stereo not drawn), the AC50 was 0.2 µM [falling, full curve].

In the case of `O=C(OCC1COc2ccccc2O1)c1ccccc1F` (stereo not drawn), the AC50 was 5.01 µM [falling, single point].

In the case of `Cc1cccc(N2CCN(C(=O)Cn3sc4nc(C)cc(C)c4c3=O)CC2C)c1` (stereo not drawn), the half-maximal activity concentration (AC50) was 25.1 µM [falling, single point].

Take `COc1ccccc1-n1c(=S)sc2c(=O)n(Cc3ccco3)c(SC)nc21`: the AC50 was 3.16 µM [rising, partial curve].

`CCOC(=O)N1CCN(Cc2nc3c(c(=O)n(C)c(=O)n3C)n2Cc2ccc(F)cc2)CC1`: the AC50 was 12.6 µM [rising, partial curve].

`CCOC(=O)N1CCC(NC(=O)c2cccc3c2C(=O)N(c2ccc(OC)cc2)C3)CC1`: the half-maximal activity concentration (AC50) was 5.01 µM [rising, partial curve].

Turning to `C=CCn1c(-c2ccc(OC)c(OC)c2)cs/c1=N\c1ccccn1`, the half-maximal activity concentration (AC50) was 25.1 µM [rising, single point].

In the case of `CC(C)(C)c1cnnn1-c1ccc(NC(=O)c2ccc(Br)o2)cc1`, the AC50 was 10 µM [rising, single point].

Regarding `CN(Cc1ccccc1)c1nc2c(c(=O)[nH]c(=O)n2C)n1CCOc1ccccc1`, the AC50 is 10 µM [rising, partial curve].

For `COC(=O)[C@@H](NC(=O)Nc1ccc(C(C)=O)cc1)C(C)C`, the AC50 was 3.98 µM [falling, full curve, poor fit].

In the case of `CC1(Cc2cn(CCC#N)c3ccccc23)OCCO1`, the AC50 was 6.31 µM [rising, partial curve].

For the molecule `Cc1cccc(-n2cnc3cc(C(=O)N4CCCCC4)ccc32)c1`, the AC50 was 25.1 µM [rising, single point].

Take `CCCNC(=O)NC(=O)COC(=O)c1ccc(OC)c(S(=O)(=O)N2CCCc3ccccc32)c1`: the AC50 is 20 µM [falling, single point].

Turning to `CC(=O)Nc1ccc(N2CCOCC2)c(C(=O)Nc2cccc(C)c2)c1`, the AC50 is 5.01 µM [falling, single point].

Consider `Cc1ccc2cc(C)c3nnc(SCC(=O)NCc4ccco4)n3c2c1`, for which the AC50 was 10 µM [rising, single point].

Take `CS(=O)(=O)N1CCc2cc(-c3csc(NC(=O)Cc4cccs4)n3)ccc21`: the AC50 is 25.1 µM [falling, single point].

As for `COC(=O)c1ccc(CSc2ncnc3c2oc2ccccc23)o1`, the AC50 is 3.16 µM [rising, full curve].

Turning to `Cc1ccc(SCc2cc(=O)[nH]c(N3CCN(Cc4ccccc4)CC3)n2)cc1`, the AC50 is 12.6 µM [falling, single point].

Turning to `CC(=O)c1c(C)nc2nonc2c1N`, the AC50 was 12.6 µM [rising, single point].

As for `C[N+]1(C)CCO[C@](O)(c2ccccc2)C1`, the concentration at half-maximal activity (AC50) is 3.98 µM [rising, partial curve].

For `CCOC(=O)c1ccccc1NC(=O)c1c(F)c(F)c(F)c(F)c1F`, the AC50 is 0.00316 µM [falling, full curve, poor fit].

Regarding `COc1cccc(C(c2nnnn2Cc2ccc(F)cc2)N2CCC(C(N)=O)CC2)c1OC` (stereo not drawn), the AC50 was 10 µM [falling, partial curve, poor fit].

Regarding `Cc1cc(C)cc(Nc2cc(=O)n(C3CCCCC3)c(=O)[nH]2)c1`, the AC50 is 3.16 µM [rising, single point].

On to `CCOc1ccc(-c2nnc(-c3cccnc3)o2)cc1OCC`, for which the half-maximal activity concentration (AC50) is 15.8 µM [rising, single point].

`NC(=O)CNC(=O)C1CCCc2c1[nH]c1ccc(Cl)cc21` (stereo not drawn): the AC50 is 7.94 µM [falling, partial curve].

In the case of `Cc1noc(C)c1COC(=O)c1cc(C)n(-c2ccccc2)c1C`, the concentration at half-maximal activity (AC50) was 6.31 µM [rising, partial curve].

For the molecule `COc1ccc(C)cc1-n1nnnc1SCc1nc2ccccc2s1`, the AC50 is 1.58 µM [falling, partial curve].

For `Fc1ccc(Br)cc1C1C=C(c2ccc(Br)s2)Nc2ncnn21` (stereo not drawn), the AC50 was 12.6 µM [rising, single point].

Consider `O=C(NCCc1c[nH]c2ccccc12)c1ccc(S(=O)(=O)NCc2ccco2)cc1`, for which the AC50 was 7.94 µM [falling, partial curve].

Regarding `COc1ccc(OC)c(C(=O)CC2OC(=O)c3ccccc32)c1` (stereo not drawn), the AC50 was 0.794 µM [falling, partial curve].

`CCN(CCNC(=O)C1CCN(Cc2nc(-c3ccc(Cl)cc3)oc2C)CC1)c1ccccc1`: the AC50 was 0.0158 µM [falling, full curve, poor fit].

On to `CCC(=O)N1c2ccc(S(=O)(=O)CCC(=O)NC3CCCC3)cc2CC1C` (stereo not drawn), for which the AC50 was 0.126 µM [falling, full curve].

As to `O=C(Nc1ccc2nc(-c3cccs3)c(-c3cccs3)nc2c1)N1CCOCC1`, the AC50 was 12.6 µM [rising, partial curve].

As to `COc1ccccc1-n1c(CNC(=O)c2ccco2)nnc1SCC(=O)Nc1cc(C)ccc1C`, the concentration at half-maximal activity (AC50) was 12.6 µM [rising, single point].

Take `Cc1cc(C)c2nc(SCC#N)cc(C)c2c1`: the AC50 was 12.6 µM [rising, single point].

For the molecule `COc1ccc(N2CCN(c3nc4c(c(=O)[nH]c(=O)n4C)n3Cc3ccccc3Cl)CC2)cc1`, the AC50 was 3.98 µM [rising, full curve, poor fit].

For the molecule `CCCN(CCC)c1nc(C)cc(C(C#N)c2nc3ccccc3o2)n1` (stereo not drawn), the AC50 was 5.01 µM [rising, partial curve].

Turning to `CCOC(=O)C1CCN(S(=O)(=O)c2cccc(-c3cn4cccnc4n3)c2)CC1`, the AC50 is 12.6 µM [falling, single point].

`Oc1ccc(Cc2nccc3cc(O)c(O)cc23)cc1O`: the concentration at half-maximal activity (AC50) is 3.98 µM [rising, single point].

Turning to `O=C(c1cc2c(s1)-c1ccccc1OC2)N1CCN(c2ccccn2)CC1`, the AC50 was 7.94 µM [rising, partial curve].

For `O=C(c1ccc(F)cc1)C(CN1CCOCC1)c1ccccc1` (stereo not drawn), the AC50 was 3.16 µM [falling, full curve].

For the molecule `C=CC(=O)OCCOCCOCCOCCOC(=O)C=C`, the AC50 is 12.6 µM [falling, partial curve] and 7.94 µM [falling, full curve].

Turning to `COc1ccc(/C(CC2(O)C(=O)Nc3ccccc32)=N\O)cc1` (stereo not drawn), the AC50 is 0.126 µM [falling, full curve].

Regarding `COc1ccc(CN(Cc2nc3ccccc3c(=O)[nH]2)C(=O)NC2CCCCC2)cc1`, the AC50 is 5.01 µM [rising, full curve].

Take `Cc1nnc(NC(=O)CSc2nnc(Cc3ccccc3)n2Cc2ccccc2)s1`: the AC50 was 12.6 µM [rising, partial curve].

In the case of `COc1cc(NC(=O)CSc2nccc(C)n2)c(C(=O)O)cc1OC`, the AC50 was 25.1 µM [falling, single point].

Turning to `O=c1c(-c2ccc(Cl)cc2)nc2cnc(Nc3ccccc3)nc2n1C1CC1`, the AC50 was 10 µM [rising, partial curve].

With `CCC(CC)C(=O)Nc1cc(C(=O)OC)cc(C(=O)OC)c1`, the AC50 is 25.1 µM [rising, single point].

Turning to `O=C1C=C(N2CCN(c3ccccn3)CC2)C(=O)c2c(O)ccc(O)c21`, the AC50 was 3.16 µM [rising, partial curve].

With `CCOc1ccc(-c2noc(-c3ccncc3)n2)cc1OCC`, the AC50 is 15.8 µM [rising, partial curve].

`Oc1ccc(Cl)cc1Sc1cc(Cl)ccc1O`: the half-maximal activity concentration (AC50) is 15.8 µM [falling, partial curve, poor fit].

As to `Cc1cccc(Cn2c(=O)n(Cc3ccco3)c(=O)c3ccccc32)c1`, the AC50 was 25.1 µM [rising, single point].

In the case of `CCOc1ccc(CCN2C(=O)CCC2(C)C(=O)NC(C)CC)cc1OCC` (stereo not drawn), the AC50 was 12.6 µM [rising, partial curve].

In the case of `Cc1sc2nc(SCC(=O)N(CCO)CCO)n(C3CCCCC3)c(=O)c2c1C`, the AC50 is 12.6 µM [rising, partial curve].

For the molecule `COc1cccc(Cn2c(=O)c(C)nc3cnc(Nc4cccc(OC)c4)nc32)c1`, the AC50 was 12.6 µM [rising, partial curve].

In the case of `c1csc(CNc2nc(-c3ccc4c(c3)OCO4)nc3ccccc23)c1`, the half-maximal activity concentration (AC50) was 6.31 µM [rising, partial curve].

As to `COc1ccc(C(=O)c2ccc(N(C)C)cc2)c(OC)c1`, the AC50 is 0.398 µM [falling, partial curve].

In the case of `CN(C)c1ccc(NC(=O)CCCc2ccccc2)cc1`, the AC50 was 10 µM [falling, single point].

As to `O=c1c2ccccc2nnn1CSc1nnc(-c2cccnc2)n1-c1ccccc1F`, the AC50 is 0.0126 µM [falling, full curve, poor fit].
